For assay [1], the target named is P5 a^0-a (P5 with domain b and the C-terminal extension loop, residue 291-440, deleted) (human) (UniProt Q15084). The experiment in a line: SEC. (In general: In gel filtration, larger molecules generally elute earlier.)
The target is the same in assay [2]. The experiment in a line: SAXS.
Assay [3] deals with human P5 (PDIA6), full-length (human) (UniProt Q15084). The experiment in a line: SEC.
Assay [4] concerns the target P5A5 mutant (P5 with V105, L109, L112, V116 and L120 mutated to Ala) (human) (UniProt Q15084). Briefly: SEC.
The target is the same in assay [5]. The experiment in a line: SAXS.

Results on three molecules are retold here after article doi:10.1101/2020.11.17.387910 (bioRxiv, 2020).

Positions count from the first letter of the chain named. Results are given in words; binding and its absence hold for the method and conditions named. Some results given as binding are weak or reduced against the parent protein; the word gives no strength.

B1: P5 a^0-a (P5 with domain b and the C-terminal extension loop, residue 291-440, deleted) (domain or fragment, UniProt Q15084 20-290)
chain: LYSSSDDVIELTPSNFNREVIQSDSLWLVEFYAPWCGHCQRLTPEWKKAATALKDVVKVGAVDADKHHSLGGQYGVQGFPTIKIFGSNKNRPEDYQGGRTGEAIVDAALSALRQLVKDRLGGRSGGYSSGKQGRSDSSSKKDVIELTDDSFDKNVLDSEDVWMVEFYAPWCGHCKNLEPEWAAAASEVKEQTKGKVKLAAVDATVNQVLASRYGIRGFPTIKIFQKGESPVDYDGGRTRSDIVSRALDLFSDNAPPPELLEIINEDIAKRT
With B1, the binding entry in assay [1] and in assay [2] was “binds” each time.

B2: human P5 (PDIA6), full-length (enzyme, UniProt Q15084 20-440, looked up)
chain: LYSSSDDVIELTPSNFNREVIQSDSLWLVEFYAPWCGHCQRLTPEWKKAATALKDVVKVGAVDADKHHSLGGQYGVQGFPTIKIFGSNKNRPEDYQGGRTGEAIVDAALSALRQLVKDRLGGRSGGYSSGKQGRSDSSSKKDVIELTDDSFDKNVLDSEDVWMVEFYAPWCGHCKNLEPEWAAAASEVKEQTKGKVKLAAVDATVNQVLASRYGIRGFPTIKIFQKGESPVDYDGGRTRSDIVSRALDLFSDNAPPPELLEIINEDIAKRTCEEHQLCVVAVLPHILDTGAAGRNSYLEVLLKLADKYKKKMWGWLWTEAGAQSELETALGIGGFGYPAMAAINARKMKFALLKGSFSEQGINEFLRELSFGRGSTAPVGGGAFPTIVEREPWDGRDGELPVEDDIDLSDVELDDLGKDEL
Consider B2, for which, in assay [3], the binding entry is reported as “binds”.

B3: P5A5 mutant (P5 with V105, L109, L112, V116 and L120 mutated to Ala) (enzyme, UniProt Q15084 20-440)
chain: B2 chain with V105A, L109A, L112A, V116A, L120A
Consider B3, for which the binding entry in assay [4] and in assay [5] was “no binding” in each case.
